Library screen at single concentrations

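Whole-parasite assay of Trypanosoma brucei over 72 hours; the read-out is not stated. Tested at 30 µM. Higher reads as stronger inhibition (inferred: compounds with an IC50 in retests scored well above the rest). Values scatter widely below zero; nearly all retest evidence comes from the higher of the two concentrations used. About 64,000 compounds were tested under these conditions; 1.5% (about 940) showed 50% or more at least once.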

Values are the deposited “Percent Effect”, in %. The record does not define 0% and 100%; most values in the screen are far below 50% and negative numbers occur (in some assays of this library far below -100). The compounds are a random part of those screened.

| SMILES | percent effect |
|---|---|
| `CS(=O)(=O)N1Cc2cnn(CC3CC3)c2C(COCC2CC2)C1.O=C(O)C(F)(F)F` (stereo not given) | -21.58% |
| `CCc1[nH]ncc1C(=O)N1CCN(c2nccc(OC)n2)CC1` | -17% |
| `c1cc(-c2nnc([C@H]3CCN(C4CCOCC4)C3)o2)ccn1` | -34.31% |
| `Cc1cnn(C2CN(Cc3nc(C(C)(C)C)no3)C2)c1` | -7.108% |
| `CN(c1ccc(F)c(F)c1)S(=O)(=O)c1cc2c(c(C(=O)O)c1)OCCO2` | -70.51% |
| `COCCCn1cnnc1CNC(=O)c1[nH]c2c(C)cc(C)cc2c1C` | -39.48% |
| `CC(C)CN1C[C@H](COCc2ccccc2)Oc2ncccc2C1=O` | 4.41% |
| `O=C(O)C(F)(F)F.[H][C@@]12OCCN(CC3CC3)[C@@]1([H])CC[C@H]2OC` | -33.64% |
| `O=C(c1ccncc1)N1CCc2[nH]nc(Nc3ccccc3)c2C1` | -5.348% |
| `CC(=O)N1CCC2(CCN(CC3CCOC3)C2)CC1` (stereo not given) | -83.35% |
| `O=C(c1cc(=O)n(-c2ccccc2)[nH]1)N1CCOC(C(F)(F)F)C1` (stereo not given) | 25.14% |
| `Cc1cnc(CN2CCN(c3nc(C)cs3)C(C)C2)cn1` (stereo not given) | -24.92% |
| `Cc1cc(CCC(N)=O)cc(C2CCCN2Cc2ccccn2)n1` (stereo not given) | 8.238% |
| `CCN(CC)CCCNC(=O)Nc1c(C)cccc1C(C)C` | -53.26% |
| `Cc1ncc(-c2ccnc(N3CCCCCC3)n2)c(-c2cccnc2)n1` | -32.23% |
| `Cc1cc(N2CCCC2)c(C#N)c(C)n1` | 4.218% |
| `O=C(O)C(F)(F)F.[H][C@@]12COC[C@]1(CNC(=O)c1ccccc1)CN(Cc1cnn(C)c1)C2` | -18.67% |
| `CC1CCC(NC(=O)CNC2(c3ccc(Br)cc3)CCOCC2)CC1` (stereo not given) | -5.344% |
| `O=S(=O)(C1CC1)N1CCC2(COCc3cnc(N4CCOCC4)nc32)C1` (stereo not given) | -19.12% |
| `CCc1ccc(C(COC)NC(=O)c2ccc(O)nc2)o1` (stereo not given) | -22.71% |
| `Cc1cccc(S(=O)(=O)NCC2CCN(c3cnccn3)CC2)c1` | 11.09% |
| `Cc1noc(C)c1C(=O)NCc1cc[nH]n1` | -40.78% |
| `CC/C=C(/C)C(=O)N1CSCC1C(=O)N(C)CCc1ccncc1` (stereo not given) | -25.41% |
| `Cc1nnc2n1CCN(c1nc3ccccc3o1)C2` | -14.47% |
| `CC1CCN(C(=O)c2ccn(COc3ccccc3)n2)CC1` | -8.855% |
| `CC(=O)N(C)Cc1ccc(OCc2cccs2)cc1` | -29.32% |
| `Cc1ccc2c(cnn2CCC(=O)NCc2csc(C)n2)c1` | -24.38% |
| `Cc1cc(C)n(C(=O)c2cn(C)nc2S(=O)(=O)N2CCSCC2)n1` | 1.966% |
| `Cc1nn(CC(=O)NCC2(C(N)=O)CCOCC2)c(C)c1Cl` | -11.91% |
| `Cn1cc(C2=CCN(CCC(=O)NCc3ccc(Cl)cc3)CC2)cn1` | -119.7% |
| `COC(=O)C(NC(=O)c1ccc(C)cc1C)c1cccnc1` (stereo not given) | -55.05% |
| `COc1ccc(-c2c(C)nn3c(=N)c(C#N)n[nH]c23)cc1OC` | -58.11% |
| `CCC(C)(CC(=O)O)NC(=O)Cc1ccccc1Br` (stereo not given) | -15.68% |
| `c1cnn(CCNCc2ccc(N3CCCCC3)cc2)c1` | -21.91% |
| `O=C(CCO)N1CCOC2(CCCN(C(=O)c3ccco3)C2)C1` (stereo not given) | 16.58% |
| `[H][C@]12CC[C@@]3(N=C(C)N(CCOC)C3=O)[C@@]1([H])CN(C(=O)NC(C)C)C2` | -31.62% |
| `CN(Cc1ccccc1-n1cccn1)c1nc(N)nc2c1CCNCC2` | -19.53% |
| `N#Cc1ccc(NCC(O)c2ccco2)c(C(F)(F)F)c1` (stereo not given) | -14.08% |
| `CCOc1cc(/C=C/c2ncc(C(=O)NC)s2)ccc1OC` | -20.83% |
| `O=C(NCCN1CCOCC1)c1cc(-c2ccc(Cl)s2)[nH]n1` | 1.472% |
| `Cc1nn(C)c(C)c1NC(=O)CNC(c1ccccc1)C1CCC1` (stereo not given) | -181.7% |
| `CCN1CC(C(=O)N(C)Cc2cc3cc(F)ccc3[nH]2)CC1=O` (stereo not given) | -58.17% |
| `Cc1nc(CN2CCCC(NCc3ccsc3)C2)no1` (stereo not given) | -22.48% |
| `CC(C)n1nc(Cn2cccc2)c2c1CN(C1CCOCC1)C2.O=C(O)C(F)(F)F` | -12.62% |
| `[H][C@]12CCN(C(=O)C(C)(C)C)CC[C@@]1([H])S(=O)(=O)CCN2S(C)(=O)=O` | -25.12% |
| `CN(CCCc1cnn(C)c1)C(=O)C1CCOC1` (stereo not given) | -174.9% |
| `Cc1csc(CCNCc2cnc3c(c2)c(C)nn3C)n1.Cl` | 14.73% |
| `COc1ccc(-c2nc(C(=O)NCC3CCOC3)cs2)cc1OC` (stereo not given) | -19.81% |
| `COc1ccc(CC(=O)N2CCCC(n3cc(C)cn3)C2)cc1F` (stereo not given) | -13.95% |
| `CCCSCC(=O)Nc1ncn(CC(=O)N2CCCCCC2)n1` | -31.13% |
| `CC(=O)NCCCC(=O)N1CCc2[nH]c(-c3ccccc3)nc2C1` | -6.117% |
| `Cc1ccccc1CNC(=O)c1ccccc1-n1cnc(CN)c1` | 7.94% |
| `Cc1ncsc1C(=O)NCc1ccnc(OCC(F)(F)F)c1` | 9.655% |
| `COc1ccc(CNC(C)c2cccc(Cl)c2)c(OC)c1OC` (stereo not given) | 6.816% |
| `[H][C@@]12CCN(C(=O)Cc3cccs3)[C@@]1([H])CC(=O)N2CC1CC1` | -12.64% |
| `Cc1sc2ncc(-c3ccnc(NC4CCN(C)CC4)n3)c(=O)n2c1C` | -7.558% |
| `CC(C)c1nc(N2CCC(N3CCCC(O)C3)CC2)c2cnn(C)c2n1` (stereo not given) | -2.72% |
| `Cc1ocnc1C(=O)N(C)[C@@H]1CCC[C@@H](N2CCCC2)[C@@H]1O` | -16.66% |
| `CCCS(=O)(=O)NC1CCc2c(ccc(=O)n2CC2CC2)C1` (stereo not given) | -26.86% |
| `Cn1cnnc1S(=O)(=O)C1CCN(S(=O)(=O)c2ccc(F)c(Cl)c2)CC1` | 73.39% |
| `[H][C@]12CCN(C(=O)COC)CC[C@@]1([H])S(=O)(=O)N(Cc1cccnc1)C2` | -87.14% |
| `[H][C@@]12CN(C3CCOCC3)C[C@@]1([H])N(Cc1ccncc1)C(=O)CO2` | -26.52% |
| `COC(=O)COn1c(SCC(=O)OC)nc2ccccc2c1=O` | -55.67% |
| `Cl.c1cnc2c(c1)cc([C@H]1CCCO1)n2CCN1CCCCC1` | -10.06% |
| `Cc1nc(CCNC(=O)CC2CCN(C(C)C)CC2)sc1Cl` | -20.05% |
| `CCCc1noc(CCC(=O)NC(C)c2nnc3n2CCCCC3)n1` (stereo not given) | -39.21% |
| `N#Cc1ccccc1OCCN1CCn2c(nnc2C2CC2)C1` | -5.151% |
| `CNc1cc(C)nc(N2CCC3(CC2)[C@H](O)C[C@@H]3OC)n1` | -1.139% |
| `CN(C)CC1CN(CCOc2cccc(C#N)c2)CCO1` (stereo not given) | -33.54% |
| `c1ccc(N2CCCC2)c(NCc2ccncc2)c1` | -23.07% |
| `Cc1ccnn1CC(=O)N1CCN(C2CCc3ccccc3C2)CC1` (stereo not given) | -239.6% |
| `CC(c1nc(C(C)(C)C)no1)N1CCN(CC(=O)N2CCOCC2)CC1` (stereo not given) | 14.74% |
| `Cc1nccc(C(=O)NC(CN2CCCC2=O)c2ccccc2)n1` (stereo not given) | 10.63% |
| `CS(=O)(=O)NCC1CCCCN1Cc1cccc(C#N)c1` (stereo not given) | -9.391% |
| `Cc1cnn(CC(C)NCc2ccc(-n3cccn3)cc2)c1` (stereo not given) | -3.988% |

The first 4 entries again:

| SMILES | percent effect |
|---|---|
| `CS(=O)(=O)N1Cc2cnn(CC3CC3)c2C(COCC2CC2)C1.O=C(O)C(F)(F)F` (stereo not given) | -21.58% |
| `CCc1[nH]ncc1C(=O)N1CCN(c2nccc(OC)n2)CC1` | -17% |
| `c1cc(-c2nnc([C@H]3CCN(C4CCOCC4)C3)o2)ccn1` | -34.31% |
| `Cc1cnn(C2CN(Cc3nc(C(C)(C)C)no3)C2)c1` | -7.108% |

The values are deposited in ChEMBL (CHEMBL3988442, “University of Dundee, Small-Polar-MMV Screening Library” (2021)).